# Assay results

From PubChem BioAssay record AID1851 (NCATS, 2009).

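Human cytochrome P450 2D6 or 2C9 made recombinantly, with enzyme activity tracked through a luminescent signal from dealkylation of a luciferin precursor; timing is not given here. Percent change in enzyme activity at the series' top concentration, where 0 is the no-effect control and more negative values mean stronger inhibition. Calls come from the fitted dose curve: inactive means no well-fitted curve with a large enough effect, even if single readings are sizeable.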

Values are in %. Every entry below has the call inactive. Only inactive entries are shown; hits are left out here.

| compound | tested on / at | activity (%) |
|---|---|---|
| `N[C@@H](Cn1cc(I)c(=O)[nH]c1=O)C(=O)O` | Cytochrome P450 2C9 (Homo sapiens); p450-cyp2c9; at 57.1 µM (top of the series) | 23.38 |
| `CCCCNC(=O)C(=O)c1ccccc1NC(C)=O` | Cytochrome P450 2D6 (Homo sapiens); p450-cyp2d6; at 57.1 µM (top of the series) | -13.1 |
| `c1csc(CN2CC3(CCNCC3)C2)n1` | Cytochrome P450 2C9 (Homo sapiens); p450-cyp2c9; at 57.1 µM (top of the series) | 11.47 |
| `C[C@@H]1O[C@H](C[N+](C)(C)C)CS1` | Cytochrome P450 2C9 (Homo sapiens); p450-cyp2c9; at 57.1 µM (top of the series) | -6.626 |
| `C=CCn1c(C)cc(C(=O)CN2C(=O)c3ccccc3C2=O)c1C` | Cytochrome P450 2D6 (Homo sapiens); p450-cyp2d6; at 57.1 µM (top of the series) | 1.871 |
| `COC(=O)C1=C(C)Nc2ncnn2C1c1cccnc1` (centres undefined) | Cytochrome P450 2D6 (Homo sapiens); p450-cyp2d6; at 57.1 µM (top of the series) | 24.7 |
| `NO` | Cytochrome P450 2C9 (Homo sapiens); p450-cyp2c9; at 57.1 µM (top of the series) | 9.244 |
| `CCN(CC)CCn1ncc2c(N)ncnc21` | Cytochrome P450 2C9 (Homo sapiens); p450-cyp2c9; at 11.4 µM (top of the series) | -11.6 |
| `C[N+](C)(C)CCCCCC[N+](C)(C)C` | Cytochrome P450 2D6 (Homo sapiens); p450-cyp2d6; at 25.6 µM (top of the series) | -2.565 |
| `CC(C)OCCCNC(=O)C1CC(=O)N(C2CCCCCCC2)C1` (centres undefined) | Cytochrome P450 2D6 (Homo sapiens); p450-cyp2d6; at 57.1 µM (top of the series) | -26.54 |
| `NC(=O)CCCC1=NS(=O)(=O)c2ccccc2N1` | Cytochrome P450 2D6 (Homo sapiens); p450-cyp2d6; at 57.1 µM (top of the series) | 5.895 |
| `NC[C@@H]1O[C@H](O[C@@H]2[C@H](O[C@@H]3O[C@H](CO)[C@@H](COC[C@H]4O[C@@H](CN)[C@@H](O)[C@@H](O)[C@@H]4N)[C@@H]3O)[C@@H](O)[C@@H](N)C[C@H]2N)[C@@H](N)[C@H](O)[C@@H]1O` | Cytochrome P450 2D6 (Homo sapiens); p450-cyp2d6; at 25.6 µM (top of the series) | 4.869 |
| `C[N+](C)(C)CCCCCNCC12CC3CC(CC(C3)C1)C2` | Cytochrome P450 2D6 (Homo sapiens); p450-cyp2d6; at 57.1 µM (top of the series) | -1.363 |
| `O=C(O)CSCNC(=O)CC12CC3CC(CC(C3)C1)C2` | Cytochrome P450 2D6 (Homo sapiens); p450-cyp2d6; at 57.1 µM (top of the series) | 9.799 |
| `COc1cc2ccccc2cc1C(=O)Nc1ccc(S(=O)(=O)Nc2cc(C)on2)cc1` | Cytochrome P450 2D6 (Homo sapiens); p450-cyp2d6; at 57.1 µM (top of the series) | 9.137 |
| `CCOCCCN1C(=O)CN(C2CCCCC2)C(=O)C1c1ccc(OCC)c(OC)c1` (centres undefined) | Cytochrome P450 2D6 (Homo sapiens); p450-cyp2d6; at 57.1 µM (top of the series) | -9.267 |
| `CC(=O)NC(Cc1ccc(F)cc1)C(=O)O` (centres undefined) | Cytochrome P450 2D6 (Homo sapiens); p450-cyp2d6; at 57.1 µM (top of the series) | -0.8995 |

For reference, 2 entries once more:

C=CCn1c(C)cc(C(=O)CN2C(=O)c3ccccc3C2=O)c1C [Cytochrome P450 2D6 (Homo sapiens); p450-cyp2d6; at 57.1 µM (top of the series)] gave activity 1.871%.
NC(=O)CCCC1=NS(=O)(=O)c2ccccc2N1 [Cytochrome P450 2D6 (Homo sapiens); p450-cyp2d6; at 57.1 µM (top of the series)] gave activity 5.895%.